PubChem BioAssay AID504784, Drosophila RNAi Screening Center, 2011
The deposit covers about 17,000 reagents; shown is an unselected part of those with a known target gene and a result. 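Each column is one replicate's B-score; the combined score over replicates was not deposited, so single values may mislead.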 Names joined by + are all predicted targets of the reagent.

Aim: 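Search for regulators of lipid droplet storage in oleate-fed fly cells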 (primary screen)
System: Drosophila Kc167 embryonic cells
Reagent: long dsRNA against Drosophila genes, about 250 ng dsRNA per well
Timing: 4 days
Treatment: cells fed 400 µM oleic acid bound to BSA
Read-out: 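Microscope images give a droplet-to-nucleus area ratio, taken as log and converted to a screen-wide B-score; higher values mean greater lipid storage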
Reading the numbers: droplet/nuclear area B-score: higher = more stored lipid (overstorage)

gene	dsRNA	droplet/nuclear area B-score, replicate 1	droplet/nuclear area B-score, replicate 2
CG3348	DRSC15480	1.49	-0.172
CkIIbeta2	DRSC07361	-0.131	-1.68
CG42266	DRSC21577	-1.64	-0.66
CG42266	DRSC21957	2.75	-1.25
Cep164	DRSC20163	-0.0762	-0.319
sds22	DRSC17052	0.0212	0.77
Rbp4	DRSC16818	-0.246	-0.355
Swim	DRSC04334	-2.66	-2.26
JTBR	DRSC08667	-0.135	-1.45
CG31639	DRSC00910	0.646	-0.66
ppk15	DRSC14733	0.95	1.22
wdb	DRSC14163	-0.421	-0.796
CG15803	DRSC15121	-0.796	0.0764
CG5662	DRSC19957	-1.55	-0.149
alpha-Est8	DRSC12620	-0.372	-0.563
Elp2	DRSC06095	0.526	-0.143
lncRNA:CR42862	DRSC08348	-1.54	
CG10561	DRSC02068	-2.29	-0.379
ldbr	DRSC10933	-0.0326	0.426
CG15386 + CG42371	DRSC00400	-0.173	-1.04
Fs(2)Ket	DRSC03328	7.32	11.4
CG15256	DRSC01940	0.911	-0.614
Ae2	DRSC08997	0.147	1.03
Ae2	DRSC10969	0.331	
Gadd45	DRSC06033	0.00267	0.0504
Ir60e	DRSC04227	1.61	0.0548
CG8728	DRSC07251	0.603	0.085
CG2924	DRSC18525	-1.8	0.685
RpL22-like	DRSC04582	-0.361	1.57
CG33281	DRSC00421	-0.025	-0.45
SCaMC	DRSC10293	-0.61	0.629
SCaMC	DRSC10415	1.96	1.88
Cpr92F	DRSC15819	-1.47	1.07
CG15531	DRSC15068	0.137	0.488

3 successive records from above, quoted:
gene	dsRNA	droplet/nuclear area B-score, replicate 1	droplet/nuclear area B-score, replicate 2
lncRNA:CR42862	DRSC08348	-1.54	
CG10561	DRSC02068	-2.29	-0.379
ldbr	DRSC10933	-0.0326	0.426
